The results in this text go back to paper PMC2891856.

Amino acid sequences for entries named in this document (tags omitted).
UniProt Q13547: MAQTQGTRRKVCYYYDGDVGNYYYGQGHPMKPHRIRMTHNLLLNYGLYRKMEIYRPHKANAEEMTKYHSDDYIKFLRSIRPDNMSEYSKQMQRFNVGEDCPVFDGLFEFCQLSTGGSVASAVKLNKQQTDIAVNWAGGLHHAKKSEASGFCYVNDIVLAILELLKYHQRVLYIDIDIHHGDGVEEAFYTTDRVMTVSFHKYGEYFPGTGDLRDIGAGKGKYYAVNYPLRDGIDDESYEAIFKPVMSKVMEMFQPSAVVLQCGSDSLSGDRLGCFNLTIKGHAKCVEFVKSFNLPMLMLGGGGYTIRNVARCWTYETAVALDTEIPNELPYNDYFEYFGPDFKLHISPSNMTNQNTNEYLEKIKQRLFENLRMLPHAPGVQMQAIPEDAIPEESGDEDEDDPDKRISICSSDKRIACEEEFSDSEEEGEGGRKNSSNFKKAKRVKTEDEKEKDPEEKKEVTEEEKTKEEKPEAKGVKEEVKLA
UniProt Q12873: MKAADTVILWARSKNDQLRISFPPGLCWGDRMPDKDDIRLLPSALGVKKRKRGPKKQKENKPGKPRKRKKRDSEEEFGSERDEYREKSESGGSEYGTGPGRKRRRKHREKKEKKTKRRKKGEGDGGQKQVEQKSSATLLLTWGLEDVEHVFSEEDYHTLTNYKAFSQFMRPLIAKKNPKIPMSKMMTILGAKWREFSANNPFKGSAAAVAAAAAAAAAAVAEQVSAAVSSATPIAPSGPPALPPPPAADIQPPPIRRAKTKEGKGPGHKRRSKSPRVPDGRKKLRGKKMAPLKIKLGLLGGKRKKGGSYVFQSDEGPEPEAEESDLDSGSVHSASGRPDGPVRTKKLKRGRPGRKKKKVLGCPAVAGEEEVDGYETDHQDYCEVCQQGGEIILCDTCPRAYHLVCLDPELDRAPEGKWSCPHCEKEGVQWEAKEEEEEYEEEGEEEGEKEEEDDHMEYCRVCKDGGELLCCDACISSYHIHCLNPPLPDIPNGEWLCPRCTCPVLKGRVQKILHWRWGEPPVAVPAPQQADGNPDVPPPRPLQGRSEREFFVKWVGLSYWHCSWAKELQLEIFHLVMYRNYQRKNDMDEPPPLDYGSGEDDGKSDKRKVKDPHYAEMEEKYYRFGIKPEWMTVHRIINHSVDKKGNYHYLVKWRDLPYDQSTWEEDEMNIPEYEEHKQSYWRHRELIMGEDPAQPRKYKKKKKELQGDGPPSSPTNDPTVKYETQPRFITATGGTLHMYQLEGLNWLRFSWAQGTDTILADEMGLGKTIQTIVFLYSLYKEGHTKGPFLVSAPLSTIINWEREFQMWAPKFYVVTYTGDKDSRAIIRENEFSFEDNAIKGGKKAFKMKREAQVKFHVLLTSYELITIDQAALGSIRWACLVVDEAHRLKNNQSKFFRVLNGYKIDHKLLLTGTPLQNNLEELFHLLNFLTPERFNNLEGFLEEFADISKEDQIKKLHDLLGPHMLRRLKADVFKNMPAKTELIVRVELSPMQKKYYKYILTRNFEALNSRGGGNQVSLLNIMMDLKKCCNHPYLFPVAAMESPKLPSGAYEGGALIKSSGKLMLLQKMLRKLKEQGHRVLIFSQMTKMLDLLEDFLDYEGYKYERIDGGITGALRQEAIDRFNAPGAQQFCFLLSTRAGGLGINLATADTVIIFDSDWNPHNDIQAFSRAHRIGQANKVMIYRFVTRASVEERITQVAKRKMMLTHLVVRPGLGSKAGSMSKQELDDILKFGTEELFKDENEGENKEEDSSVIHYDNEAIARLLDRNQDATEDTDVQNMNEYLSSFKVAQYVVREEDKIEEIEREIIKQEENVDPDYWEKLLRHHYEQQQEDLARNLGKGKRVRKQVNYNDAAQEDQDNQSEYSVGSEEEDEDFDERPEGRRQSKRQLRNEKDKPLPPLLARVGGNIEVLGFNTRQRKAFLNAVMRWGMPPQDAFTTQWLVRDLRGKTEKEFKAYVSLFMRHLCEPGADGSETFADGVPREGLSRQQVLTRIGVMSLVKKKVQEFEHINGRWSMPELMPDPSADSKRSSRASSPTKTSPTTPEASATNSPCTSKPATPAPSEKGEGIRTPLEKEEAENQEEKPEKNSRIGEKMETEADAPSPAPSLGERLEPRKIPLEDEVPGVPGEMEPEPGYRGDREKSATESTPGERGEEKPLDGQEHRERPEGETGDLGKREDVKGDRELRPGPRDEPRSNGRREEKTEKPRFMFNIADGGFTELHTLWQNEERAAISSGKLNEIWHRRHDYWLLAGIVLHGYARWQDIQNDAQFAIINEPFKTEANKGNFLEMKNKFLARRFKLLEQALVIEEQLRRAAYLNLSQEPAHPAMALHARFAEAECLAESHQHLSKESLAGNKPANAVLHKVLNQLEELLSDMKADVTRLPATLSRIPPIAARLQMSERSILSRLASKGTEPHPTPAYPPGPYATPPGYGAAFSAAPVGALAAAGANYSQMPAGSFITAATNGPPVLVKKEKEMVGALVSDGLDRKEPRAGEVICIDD
UniProt P13202: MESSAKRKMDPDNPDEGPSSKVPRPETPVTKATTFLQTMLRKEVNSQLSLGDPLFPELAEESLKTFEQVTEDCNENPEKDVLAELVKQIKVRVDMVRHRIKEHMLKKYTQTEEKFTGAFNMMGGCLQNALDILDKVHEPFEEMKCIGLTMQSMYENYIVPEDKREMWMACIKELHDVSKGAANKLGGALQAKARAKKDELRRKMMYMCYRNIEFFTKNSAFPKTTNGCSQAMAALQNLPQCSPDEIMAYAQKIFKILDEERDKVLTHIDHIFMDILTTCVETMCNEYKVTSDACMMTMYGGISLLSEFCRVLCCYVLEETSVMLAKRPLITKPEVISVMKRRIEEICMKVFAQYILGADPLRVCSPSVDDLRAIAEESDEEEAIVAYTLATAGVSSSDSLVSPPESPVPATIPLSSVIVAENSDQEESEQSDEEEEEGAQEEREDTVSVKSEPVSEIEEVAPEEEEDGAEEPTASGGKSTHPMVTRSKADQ
UniProt P19893: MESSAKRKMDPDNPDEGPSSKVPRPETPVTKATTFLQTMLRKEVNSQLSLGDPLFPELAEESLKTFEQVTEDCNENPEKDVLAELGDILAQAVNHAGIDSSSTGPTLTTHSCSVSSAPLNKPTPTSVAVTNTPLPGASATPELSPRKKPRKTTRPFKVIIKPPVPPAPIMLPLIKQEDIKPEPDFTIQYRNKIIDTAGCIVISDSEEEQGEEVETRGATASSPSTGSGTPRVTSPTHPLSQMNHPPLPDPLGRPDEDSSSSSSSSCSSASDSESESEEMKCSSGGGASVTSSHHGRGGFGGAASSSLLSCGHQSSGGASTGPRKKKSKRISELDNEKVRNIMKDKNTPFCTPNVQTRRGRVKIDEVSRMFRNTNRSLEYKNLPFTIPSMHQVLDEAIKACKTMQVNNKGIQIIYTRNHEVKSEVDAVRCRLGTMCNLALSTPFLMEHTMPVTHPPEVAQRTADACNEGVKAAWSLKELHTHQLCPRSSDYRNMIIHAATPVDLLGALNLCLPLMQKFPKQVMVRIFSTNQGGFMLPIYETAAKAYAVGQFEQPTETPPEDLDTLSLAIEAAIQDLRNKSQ
UniProt P16788: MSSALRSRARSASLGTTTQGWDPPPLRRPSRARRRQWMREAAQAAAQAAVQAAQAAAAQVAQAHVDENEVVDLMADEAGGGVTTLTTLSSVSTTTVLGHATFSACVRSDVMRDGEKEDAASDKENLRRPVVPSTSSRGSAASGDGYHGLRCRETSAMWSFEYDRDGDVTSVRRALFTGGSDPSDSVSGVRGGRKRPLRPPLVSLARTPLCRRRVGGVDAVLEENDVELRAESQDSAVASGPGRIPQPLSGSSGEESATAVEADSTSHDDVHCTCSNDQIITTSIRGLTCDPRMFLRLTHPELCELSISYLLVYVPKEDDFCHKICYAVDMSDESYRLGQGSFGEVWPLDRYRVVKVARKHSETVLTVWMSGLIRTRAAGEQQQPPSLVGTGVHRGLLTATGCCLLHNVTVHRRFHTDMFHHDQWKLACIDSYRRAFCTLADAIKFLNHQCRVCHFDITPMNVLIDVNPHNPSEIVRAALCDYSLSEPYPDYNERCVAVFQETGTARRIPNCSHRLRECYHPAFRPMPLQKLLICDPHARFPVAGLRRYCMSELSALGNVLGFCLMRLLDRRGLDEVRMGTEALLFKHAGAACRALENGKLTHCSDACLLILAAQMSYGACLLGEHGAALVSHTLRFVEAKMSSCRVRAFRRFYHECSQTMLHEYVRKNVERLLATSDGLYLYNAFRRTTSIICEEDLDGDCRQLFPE

B1: SDS3 (protein, UniProt Q9H7L9 1-328)
chain: MSAAGLLAPAPAQAGAPPAPEYYPEEDEELESAEDDERSCRGRESDEDTEDASETDLAKHDEEDYVEMKEQMYQDKLASLKRQLQQLQEGTLQEYQKRMKKLDQQYKERIRNAELFLQLETEQVERNYIKEKKAAVKEFEDKKVELKENLIAELEEKKKMIENEKLTMELTGDSMEVKPIMTRKLRRRPNDPVPIPDKRRKPAPAQLNYLLTDEQIMEDLRTLNKLKSPKRPASPSSPEHLPATPAESPAQRFEARIEDGKLYYDKRWYHKSQAIYLESKDNQKLSCVISSVGANEIWVRKTSDSTKMRIYLGQLQRGLFVIRRRSAA
B2: SIN3B (protein, UniProt O75182 1-1162)
chain: MAHAGGGSGGSGAGGPAGRGLSGARWGRSGSAGHEKLPVHVEDALTYLDQVKIRFGSDPATYNGFLEIMKEFKSQSIDTPGVIRRVSQLFHEHPDLIVGFNAFLPLGYRIDIPKNGKLNIQSPLTSQENSHNHGDGAEDFKQQVPYKEDKPQVPLESDSVEFNNAISYVNKIKTRFLDHPEIYRSFLEILHTYQKEQLNTRGRPFRGMSEEEVFTEVANLFRGQEDLLSEFGQFLPEAKRSLFTGNGPCEMHSVQKNEHDKTPEHSRKRSRPSLLRPVSAPAKKKMKLRGTKDLSIAAVGKYGTLQEFSFFDKVRRVLKSQEVYENFLRCIALFNQELVSGSELLQLVSPFLGKFPELFAQFKSFLGVKELSFAPPMSDRSGDGISREIDYASCKRIGSSYRALPKTYQQPKCSGRTAICKELDHWTLLQGSWTDDYCMSKFKNTCWIPGYSAGVLNDTWVSFPSWSEDSTFVSSKKTPYEEQLHRCEDERFELDVVLETNLATIRVLESVQKKLSRMAPEDQEKFRLDDSLGGTSEVIQRRAIYRIYGDKAPEIIESLKKNPVTAVPVVLKRLKAKEEEWREAQQGFNKIWREQYEKAYLKSLDHQAVNFKQNDTKALRSKSLLNEIESVYDEHQEQHSEGRSAPSSEPHLIFVYEDRQILEDAAALISYYVKRQPAIQKEDQGTIHQLLHQFVPSLFFSQQLDLGASEESADEDRDSPQGQTTDPSERKKPAPGPHSSPPEEKGAFGDAPATEQPPLPPPAPHKPLDDVYSLFFANNNWYFFLRLHQTLCSRLLKIYRQAQKQLLEYRTEKEREKLLCEGRREKGSDPAMELRLKQPSEVELEEYYPAFLDMVRSLLEGSIDPTQYEDTLREMFTIHAYVGFTMDKLVQNIARQLHHLVSDDVCLKVVELYLNEKKRGAAGGNLSSRCVRAARETSYQWKAERCMADENCFKVMFLQRKGQVIMTIELLDTEEAQTEDPVEVQHLARYVEQYVGTEGASSSPTEGFLLKPVFLQRNLKKFRRRWQSEQARALRGEARSSWKRLVGVESACDVDCRFKLSTHKMVFIVNSEDYMYRRGTLCRAKQVQPLVLLRHHQHFEEWHSRWLEDNVTVEAASLVQDWLMGEEDEDMVPCKTLCETVHVHGLPVTRYRVQYSRRPASP

No constants are given. Whether binding was seen depends on the method and setting. Binding seen in cells or lysates may run through a third protein. Here binding means that the protein was enriched with, or labelled near, the bait; the list need not be complete. For part of these data: No binding means not detected with the bait.

The target in one assay is HDAC1-enhanced green fluorescent protein fusion protein (UniProt Q13547). Description: affinity purification with mass spectrometry.
Turning to CHD3 (from UniProt Q12873 1-2000), the binding result is on record as “binds”.

For the molecule HCMV IE1 (from UniProt P13202 1-491), the binding entry is “no binding”.

For the molecule HCMV IE2 (from UniProt P19893 1-580), the binding result was “no binding”.

Turning to “HCMV pUL97 (from UniProt P16788 1-707) (enzyme)”, the binding result is “binds”.

The target is the same in another assay. The experiment in a line: affinity purification with mass spectrometry. The source holds these as a separate data set.
Regarding B1, the binding result is reported as “binds”.

In the case of B2, the binding entry is on record as “binds”.
